This is an account of results in patent publication US20080242542A1, “INDANILINE DYE, THERMAL TRANSFER RECORDING INK SHEET, THERMAL TRANSFER RECORDING METHOD, COLOR TONER, INKJET INK, AND COLOR FILTER” (FUJIFILM Corporation, priority 2007, published 2008).

Some entries repeat one wording, which the source may state once for all of them.

The series can be described thus: Transferability: status A reflection density of solid image. The settings on record: status A reflection density of solid density (100% dot density) image.
In the case of `CCN(CC)c1ccc(N=C2C=C(NC(C)=O)C(=O)C(Cl)=C2C)cc1` [Comparative Dye 1], the Transferability result is listed as “B (those having from 1.6 to less than 1.8 are good, B)”.

On to `CCN(CC)c1ccc(N=C2C=C(NC(C)=O)C(=O)C=C2C)c(C)c1` [Comparative Dye 3], for which the Transferability result was “A (Those having a reflection density of at least 1.8 are excellent, A)”. For `CCN(CC)c1ccc(N=C2C=C(NC(C)=O)C(=O)C(Cl)=C2C)c(C)c1` [Comparative Dye 4], the Transferability result was “A (Those having a reflection density of at least 1.8 are excellent, A)”. With `CCN(CC)c1ccc(N=C2C=C(NC(=O)c3ccccc3)C(=O)C(Cl)=C2C)c(C)c1` [Comparative Dye 5] the entry was “A (Those having a reflection density of at least 1.8 are excellent, A)”; with `CCC(=O)NC1=CC(=Nc2ccc(N(CC)CC)cc2)C(C)=C(Cl)C1=O` [Compound (1)], “A (Those having a reflection density of at least 1.8 are excellent, A)”.
